# This is one part of the list.
# Assays:
# Assay in all cases: protein microarray (ProtoArray v5.0), streptavidin-Alexa Fluor 647
# Conditions in all cases: 3'-biotin; 20 mM Tris (pH 7.5), 5 mM MgCl2, 100 mM KCl, 0.1% Tween-20, A/T-rich and random oligonucleotide blockers; temperature not stated; high values mean tight binding
# [1] = system: Cyclin-dependent kinase-like 1 (human)
# [2] = system: Cyclin-dependent kinase-like 3 (human)
# [3] = system: Cystathionine beta-synthase (human)
# [4] = system: Cytochrome b-c1 complex subunit 6, mitochondrial (human)
# Cytoglobin (human) = system: Cytoglobin (human)
# [5] = system: Cytoplasmic dynein 1 heavy chain 1 (human)
# [6] = system: Cytosolic non-specific dipeptidase (human)
# [7] = system: DAZ-associated protein 2 (human)
# DBNDD1 (human) = system: DBNDD1 (human)
# DBNDD2 (human) = system: DBNDD2 (human)
sequence,measurement,setting,value
GGGGACAGGGGTATGGGGAGGGG [G4-3 biotinylated (CtG)],binding signal,[1],4.29 z-score
same,binding signal,[2],5.63 z-score
same,binding signal,[3],-0.342 z-score
same,binding signal,[4],-0.313 z-score
same,binding signal,Cytoglobin (human),-0.334 z-score
same,binding signal,[5],-0.332 z-score
same,binding signal,[6],-0.333 z-score
same,binding signal,[7],-0.334 z-score
same,binding signal,DBNDD1 (human),-0.332 z-score
same,binding signal,DBNDD2 (human),-0.327 z-score

# Shown tab-delimited: part of the list above.
sequence	measurement	setting	value
GGGGACAGGGGTATGGGGAGGGG [G4-3 biotinylated (CtG)]	binding signal	[1]	4.29 z-score
same	binding signal	[7]	-0.334 z-score

# — PMC5996148
